Test results as given in paper PMC8664570.
These are yes or no findings as the source states them, for the method shown. Binding calls can cover weak binding; strength is not graded here. Sequences can lack the tags named with a protein.

Target: PAR-6::mCherry (C. elegans | not stated)
Assay: light-induced coclustering (CeLINC), fluorescence microscopy; in live C. elegans; mCherry-tagged bait trapped by CRY2(olig)::VHH(mCherry) in clusters; coclustering of the GFP-tagged prey scored; endogenously tagged proteins

B1: GFP::PKC-3 (protein, UniProt Q19266 1-597)
chain: MSSPTSLEEDGDIKLKTRFQGQVVVLYARPPLILDDFFALLKDACKQHKKQDITVKWIDEDGDPISIDSQMELDEAVRCLNSSQEAELNIHVFVGKPELPGLPCQGEDKTVYRRGARRWKKIYLYNGHRFQAKRLNRRIQCFICHDYIWGIGRQGFRCVDCRLCVHKKCHRHVRTHCGQALQGPNIIPMAPASGSLKGARSNTSSSTTRSGGGIDNGAFHEHEIESPGSTSHDASRAMNGNGSSKWAVSLNDFRLLTVIGRGSYAKVVQAEHVSTRQIYAIKIIKKEMFNEDEDIDWVQTEKSVFEAASNYPFLVGLHSCFQTESRLFFVIEFVPGGDLMFHMQQQRKLPEEHARFYSGEIILALHFLHSRGIIYRDLKLDNVLIDAEGHIKLTDYGMCKENIKDGDLTSTFCGTPNYIAPEILRGDEYGFSVDWWALGVLMFEMMAGRSPFDIVGMQNSEENTEDYLFQIILERQIRIPRSLSVRASGILKGFLNKDPTERLGCKLDINEGLRDMKEHQFFRGFIDWEALEQKAVAPPYHPAVESDRDLTHFDHQFTDELPQLSPDNPDVIARIDQSEFDGFEYVNPLQMSREDSV
Q: With B1 as the binder, how does the binding read?
A: binds
